For data set [1], the system named is Acidovorax avenae subsp. citrulli. The data set can be described thus: 10 minute soak of externally infected diploid watermelon seeds in antibiotic solutions. It is filed as in vivo. The settings on record: any dose (100 ppm, 250 ppm, 500 ppm). As for the experimental part: The effectiveness of using an antibiotic solution combined with matrix priming for disinfecting triploid watermelon seeds internally infected with Acidovorax avenae subsp. citrulli has been tested. In order to screen for effective antibiotics, diploid watermelon seeds were obtained which were externally infected with Acidovorax avenae subsp. citrulli. […] Infected seeds were soaked for 10 minutes in antibiotic solutions of 100 ppm, 250 ppm, and 500 ppm of the above antibiotics. Dosage was chosen based on information reported by Layne Wade (21st Annual Tomato Disease Workshop, Asheville, N.C., November 2006) which stated that the MIC (minimum inhibitory concentration) of Kasugamycin on Acidovorax avenae subsp. citrulli is greater than 100 ppm.

The test system of data set [2] is triploid watermelon seeds. Conditions: in vivo. As for the experimental part:
Step 110 involves choosing which species of seed will be sought to be disinfected. […] Thus, in step 130, a phytotoxicty screening is carried out on the chosen seeds using the chosen treatment. […] For example, the inventors screened the antibiotic Oxytetracycline using the method of adding chemicals to the water used in matrix priming (Eastin, J. A., 2000, U.S. Pat. No. 6,076,301) and the method of the present invention. Water containing 500 ppm of Oxytetracycline was used to prime triploid watermelon seeds using matrix priming. Further, the same seed was treated with vacuum infiltration using 500 ppm Oxytetracycline solutions for 6 hours, which was followed by a matrix priming using water. For a control, seed of the same lot was treated using vacuum infiltration with water, followed by matrix priming using water. Also, untreated seeds were preserved as an additional control.

With `O=C(O)c1cn(C2CC2)c2cc(N3CCNCC3)c(F)cc2c1=O` [Ciprofloxacin], the “elimination of bacteria on seeds” value in data set [1] is “not effective”. Moreover, the phytotoxicity entry in data set [2] is recorded as “phytotoxic”.
